About 5,900 (2.8%) of roughly 210,000 compounds were called active. Inconclusive results (about 5%) are left out. The call rests on the fitted dose curve; in most records, active means well fitted activation curve with a large enough effect; inconclusive means small, poorly fitted or top-dose-only effect; inactive means no such curve, though single readings can be large or run the other way. This is a selection; strong and weak results do not stand in their true shares. Where no call is shown, the source filed none.
Potency means the concentration at half of the fitted maximal effect.

A short description of the assay: qHTS Assay for Enhancers of SMN2 Splice Variant Expression. Further: nearly all actives have a fitted effect of over 55% in size. On activity change, positive = activation: % of control where 0% means no effect. The settings on record: HEK293 SMN2-luciferase splicing reporter, luminescence, 30-36 h; activity change, positive = activation: at 46.1 µM (top of the series) unless noted. From the text:
NIH Chemical Genomics Center [NCGC] NIH Molecular Libraries Probe Production centers Network [MLPCN] MLPCN Grant: R03 MH084179-01 Assay Submitter (PI): Elliot Androphy NCGC Assay Overview: Spinal muscular atrophy (SMA) is caused by insufficient levels of the survival motor neuron protein SMN. The SMN locus on chromosome 5q13 contains two inverted copies of SMN called SMN1 and SMN2 which are 99% identical at the amino acid level. SMN1 is a fully functional protein and SMN2 skips exon 7 90% of the time. Skipping of exon 7 produces non-functional protein product. 10% of the SMN2 protein includes exon 7 and is fully functional. In the SMA disease state, mutations in the SMN1 locus are the cause of the disease state. Because only 10% of SMN2 is of the fully functional form, it is not sufficient to overcome the deficiency produced by the loss of the SMN1 product. A therapy that either increase the amount of SMN2 product made or to increase the inclusion of exon 7 has been proposed for the treatment of SMA. We have designed an assay to identify small molecules that can increase the amount of functional SMN2 product by appending a luciferase reporter gene after the native SMN2 gene, such that inclusion of exon 7 in the expressed product places the luciferase sequence in frame, thus generating functional luciferase enzyme.
NCGC Assay Protocol Summary: This screen utilizes a luciferase reporter gene assay, combining the promoter and splicing based cassettes in tandem with the major portion of the native SMN2 cDNA, and then transfected into HEK293 cells. Compounds that increase luciferase signal presumably enhance expression of the functional SMN2 splice variant. Passaging media contained DMEM w/ glutamax (+phenol red) 10% FCS, 1x pen/strep, 200 ug/ml hygro, 1x sodium pyruvate. Assay media contained DMEM w/ glutamax (-phenol red) 10% FCS, 1x pen strep, 1x pyruvate Sequence, Parameter, Value, Description (1) Cells, […], 2000 cells/well, 1536 TC treated White solid bottom plate (2) Time, 10-12 hours, 37C 5% CO2 (3) Compound, 23 nl, MLSMR Library (4) Control Compound, 23 nL, Sodium butyrate st 4.5mM (final) conc (5) Time, 30-36 hours, 37C 5% CO2 (6) Reagent, 3 ul, One Glo (TM) from Promega (7) Time, 5-15 minutes, Room temp (8) Detector, Viewlux: luminescent read, 60 second integration, high speed 2x binning Keywords: Spinal muscular atrophy, SMA, SMN2, high throughput screening, MLSMR, MLPCN, NIH Roadmap, qHTS and NCGC
Background: In qHTS, concentration-response curves come from the screen itself.
For `COc1ccc(C(CC(=O)O)NC(=O)c2ccccc2)cc1OC` (stereo unspecified), the activity change, positive = activation came out at 17.9%.

Consider `CCOc1cc2[nH]c(=O)n(Cc3ccc(C(=O)NCCCN4CCCC4=O)cc3)c(=O)c2cc1OCC`, for which the activity change, positive = activation is -16.5%.

Take `CCOc1ccccc1OCCn1nnc2ccccc21`: the activity change, positive = activation was -64.3%.

Consider `CN(C)C(=O)c1cc(C(=O)c2ccccc2C(F)(F)F)c[nH]1`, for which the “activity change, positive = activation” value is inactive: -65.9%.

As to `CCCn1nnc(NC(=O)c2cccc(OCc3ccccc3)c2)n1`, the activity change, positive = activation turned out to be 61.8%.

Consider `Cc1cc(C)c2c(CC(=O)Nc3ccc(F)cc3)coc2c1`, for which the “activity change, positive = activation” value is inactive: -34.8%.

Regarding `N=c1c2c(n(Cc3ccc(F)cc3)c3c1CCC3)CCCC2`, the activity change, positive = activation was -57.9%.

Turning to `Cc1cc(C)c(OCC(=O)Nc2ccc3c(c2)OCO3)cc1C`, the activity change, positive = activation was 43.5%.

As for `CC(=O)N1CCc2cc(S(=O)(=O)NC(C(=O)NC3CCCc4ccccc43)C(C)C)ccc21` (stereo unspecified), the activity change, positive = activation is 64.5%.

With `Cc1ccccc1/C=N/NC(=O)c1sccc1C`, the Potency is active: 10 µM.

Regarding `CCCCN(CCCC)S(=O)(=O)c1ccc(NC(=O)c2cccs2)cc1`, the “activity change, positive = activation” value was inactive: -33.5%.

On to `O=C(O)c1cc(-c2cccc(Cl)c2)nc2nc(N3CCCCC3)sc12`, for which the activity change, positive = activation amounted to 26.7%.

With `Cc1cccc(OCCn2c(=O)n(C)c3ccccc32)c1`, the Potency was active: 12.6 µM.

On to `CSC(=NCc1cccnc1)NS(=O)(=O)c1cccs1`, for which the activity change, positive = activation amounted to 31.9%.

For `CC(=O)Nc1cc(C)nn1-c1nc2ccccc2s1`, the “activity change, positive = activation” value was inactive: 126%.

Turning to `CCOc1cc(C2NN=C(c3ccc(C)cc3)S2)ccc1O` (stereo unspecified), the Potency was active: 15.8 µM.

With `CCCCOC(=O)Nc1ccc(S(=O)(=O)Nc2nc(C)cc(C)n2)cc1`, the activity change, positive = activation came to 43.7%.

Take `Cc1nc2ccccc2c2oc(C(=O)NCc3ccccn3)cc12`: the “activity change, positive = activation” value was inactive: -37.5%.

In the case of `N#C/C(=C\c1cn(Cc2cccc(F)c2)c2ccccc12)C(=O)NCc1ccco1`, the activity change, positive = activation is -4.23%.

Regarding `O=C(Nc1ccccc1O)c1c(O)c2c([nH]c1=O)CCCC2`, the Potency was active: 17.8 µM.

For the molecule `COc1cc(SC)ccc1C(=O)NCCOc1ccccc1Cl`, the Potency is active: 12.6 µM.

On to `CCC(C)n1nccc1NC(=O)C(C)OC(=O)c1cc2ccccc2[nH]1` (stereo unspecified), for which the activity change, positive = activation was -69%.

For `Cc1ccc(C(=O)CC2(O)C(=O)N(CCc3ccccc3)c3ccc(Cl)cc32)cc1` (stereo unspecified), the “activity change, positive = activation” value was inactive: -41.9%.

As to `Cn1c(=O)c2c(nc(NCc3ccco3)n2C)n(C)c1=O`, the activity change, positive = activation is 47.9%.

`Cc1nc2c3cnn(-c4ccc(C)c(C)c4)c3ncn2n1`: the Potency is active: 11.2 µM.

Regarding `Cc1[nH]n(-c2cccc(Cl)c2)c(=O)c1C=NCc1ccco1`, the Potency was active: 12.6 µM.

Consider `O=C(Nc1nnc(CSCc2ccccc2F)s1)c1cccc([N+](=O)[O-])c1`, for which the activity change, positive = activation is -50.6%.

With `O=C(NN=C1CCCCCC1)NC1CCCCC1`, the activity change, positive = activation came to 24.2%.

As to `O=C(Oc1ccccc1/C=C\C(=O)c1cc2ccccc2o1)c1cccc(F)c1`, the “activity change, positive = activation” value was inactive: -106%.

Turning to `Cc1ccc2nc(SCC(=O)Nc3ccc(C(N)=O)cc3)[nH]c2c1`, the activity change, positive = activation is 42.9%.

Regarding `C/C(=N\NC(=O)C1COc2ccccc2O1)c1ccccn1` (stereo unspecified), the “activity change, positive = activation” value was inactive: -75.8%.

In the case of `COC(=O)Cn1ncc2c(C)n(Cc3ccccc3)c(C)c2c1=O`, the Potency is active: 17.8 µM.

Turning to `COc1ccc(CNC(=O)c2c(C)oc3c2C(=O)c2ccccc2C3=O)cc1`, the “activity change, positive = activation” value was inactive: -111%.

Turning to `O=C(Nc1cnn(C23CC4CC(CC(C4)C2)C3)c1)c1cnn2cccnc12`, the activity change, positive = activation is 63.3%.

With `CCN1CCCC1CN=Cc1c(O)n(-c2ccccc2)c(=O)c2ccccc12` (stereo unspecified), the activity change, positive = activation was 33.4%.

For the molecule `COC(=O)[C@@]1(Cc2ccc(OC)cc2)[C@H]2c3cc(C(=O)N4CCCC4)n(CCSCCO)c3C[C@H]2CN1C(=O)c1ccccc1`, the activity change, positive = activation was 36.9%.

With `COC(=O)[C@H](CCSC)NC(=O)Nc1ccc(OC)cc1OC`, the activity change, positive = activation was 63.9%.

With `CCOC(=O)CC(C)(C)/C(C)=N/Nc1ccc([N+](=O)[O-])cc1[N+](=O)[O-]`, the activity change, positive = activation is -33.4%.

Take `O=C(c1ccc(-c2ccccc2)cc1)c1ccccc1C(=O)N1CCOCC1`: the activity change, positive = activation stood at 26.6%.

For `CCNC(=O)CC1C(=O)N(c2ccc(C)cc2)C(=O)N1Cc1ccccn1` (stereo unspecified), the activity change, positive = activation was determined as 45.5%.

As to `O=C(Nc1ccncc1)C1COc2ccccc2O1` (stereo unspecified), the activity change, positive = activation is 41.9%.

For `CCOC(=O)c1c(C)[nH]c(C)c1C(=O)CN1C(=O)NC2(CCC(C)CC2)C1=O` (stereo unspecified), the activity change, positive = activation worked out at 37.4%.

For the molecule `Cc1c(=O)n(OCc2ccccn2)c2ccccc2[n+]1[O-]`, the activity change, positive = activation stood at 32.4%.

`Cn1c(=O)[nH]c(=O)c2c1nc(N1CCCCCC1)n2CCCSc1nc2ccccc2o1`: the activity change, positive = activation was determined as 32.4%.

Take `Cc1csc(NC(=O)c2ccc(C)o2)n1`: the activity change, positive = activation amounted to 73.7%.

As for `NC(=O)c1ccccc1NS(=O)(=O)c1cccs1`, the activity change, positive = activation is 32.9%.

Turning to `NC1=NN=C(c2ccc3c(c2)OCCO3)CS1`, the Potency was active: 2.51 µM.

As for `Clc1ccc(/C=N/Nc2ccccn2)cc1`, the activity change, positive = activation was 87.9%.

For `C[n+]1c2n(c3ccccc31)N=C(c1ccc(Br)cc1)CS2`, the activity change, positive = activation was -80%.

Consider `O=C(Nc1cccc(O)c1)C(=O)Nc1ccccn1`, for which the Potency is active: 10 µM.

Regarding `CC[C@H](C)[C@H](NC(N)=O)C(=O)OCC(=O)NCc1ccc(Cl)cc1`, the activity change, positive = activation came out at 39%.

As for `O=c1oc2c(CN3CCCCC3)c(O)ccc2cc1-c1nc2ccccc2[nH]1`, the activity change, positive = activation came out at 84.2%.

Turning to `Cc1nnc(SCCn2c(N3CC(C)CC(C)C3)nc3c2c(=O)[nH]c(=O)n3C)s1` (stereo unspecified), the activity change, positive = activation worked out at 31.4%.

Take `CCOC(=O)c1ccc(NC(=O)CCOc2ccc(C)cc2)cc1`: the activity change, positive = activation was found to be 37.6%.

Turning to `COC(=O)C1C(=O)NCC1c1ccc(OC)cc1` (stereo unspecified), the activity change, positive = activation worked out at 44.4%.

Take `Cc1nn(-c2nc3ccccc3[nH]2)c(=O)c2ccccc12`: the “activity change, positive = activation” value was inactive: -98.4%.
